Reference: the supplement of paper PMC11732987, “Enantioselective OTUD7B fragment discovery through chemoproteomics screening and high-throughput optimisation” (Communications Chemistry, 2025)
Some of the results follow. The data scatter; read single values as rough.

By UniProt entry, the sequences of proteins in these tests, tags left out. Where a name states a change or a piece, a line headed by the entry shows the natural chain unless it says otherwise. Residues count along the entry.
UniProt O95239: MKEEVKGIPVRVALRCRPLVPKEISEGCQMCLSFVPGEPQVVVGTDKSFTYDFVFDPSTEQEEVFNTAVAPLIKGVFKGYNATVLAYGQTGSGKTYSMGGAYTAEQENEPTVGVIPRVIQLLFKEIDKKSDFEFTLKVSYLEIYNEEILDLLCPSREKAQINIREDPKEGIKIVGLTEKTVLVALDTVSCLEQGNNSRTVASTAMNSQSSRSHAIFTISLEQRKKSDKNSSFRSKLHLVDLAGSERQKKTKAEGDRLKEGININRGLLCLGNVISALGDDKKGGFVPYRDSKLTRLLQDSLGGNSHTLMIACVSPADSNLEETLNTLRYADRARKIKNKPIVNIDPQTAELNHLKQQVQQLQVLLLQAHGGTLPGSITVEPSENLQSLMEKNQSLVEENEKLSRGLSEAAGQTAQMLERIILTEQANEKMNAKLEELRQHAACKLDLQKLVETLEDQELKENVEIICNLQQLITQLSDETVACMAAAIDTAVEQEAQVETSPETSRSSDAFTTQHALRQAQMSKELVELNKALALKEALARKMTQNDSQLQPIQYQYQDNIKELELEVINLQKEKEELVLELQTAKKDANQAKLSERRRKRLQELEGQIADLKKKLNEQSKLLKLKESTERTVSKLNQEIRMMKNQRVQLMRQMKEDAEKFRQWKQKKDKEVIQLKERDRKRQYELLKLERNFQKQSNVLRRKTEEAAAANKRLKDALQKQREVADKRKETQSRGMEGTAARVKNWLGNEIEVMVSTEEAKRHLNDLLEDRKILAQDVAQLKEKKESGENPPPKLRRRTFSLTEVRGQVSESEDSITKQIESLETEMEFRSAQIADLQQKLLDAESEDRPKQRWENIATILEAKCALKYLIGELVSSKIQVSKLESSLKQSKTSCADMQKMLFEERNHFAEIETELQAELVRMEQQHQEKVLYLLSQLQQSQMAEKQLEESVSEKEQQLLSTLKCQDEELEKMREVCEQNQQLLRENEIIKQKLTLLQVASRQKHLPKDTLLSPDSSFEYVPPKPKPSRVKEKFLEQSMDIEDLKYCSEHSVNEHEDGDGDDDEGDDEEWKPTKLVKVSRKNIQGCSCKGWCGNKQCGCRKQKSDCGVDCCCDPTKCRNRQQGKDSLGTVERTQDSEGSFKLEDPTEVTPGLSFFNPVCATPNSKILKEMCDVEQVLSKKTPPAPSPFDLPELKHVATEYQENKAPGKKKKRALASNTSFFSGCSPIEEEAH
UniProt P52732: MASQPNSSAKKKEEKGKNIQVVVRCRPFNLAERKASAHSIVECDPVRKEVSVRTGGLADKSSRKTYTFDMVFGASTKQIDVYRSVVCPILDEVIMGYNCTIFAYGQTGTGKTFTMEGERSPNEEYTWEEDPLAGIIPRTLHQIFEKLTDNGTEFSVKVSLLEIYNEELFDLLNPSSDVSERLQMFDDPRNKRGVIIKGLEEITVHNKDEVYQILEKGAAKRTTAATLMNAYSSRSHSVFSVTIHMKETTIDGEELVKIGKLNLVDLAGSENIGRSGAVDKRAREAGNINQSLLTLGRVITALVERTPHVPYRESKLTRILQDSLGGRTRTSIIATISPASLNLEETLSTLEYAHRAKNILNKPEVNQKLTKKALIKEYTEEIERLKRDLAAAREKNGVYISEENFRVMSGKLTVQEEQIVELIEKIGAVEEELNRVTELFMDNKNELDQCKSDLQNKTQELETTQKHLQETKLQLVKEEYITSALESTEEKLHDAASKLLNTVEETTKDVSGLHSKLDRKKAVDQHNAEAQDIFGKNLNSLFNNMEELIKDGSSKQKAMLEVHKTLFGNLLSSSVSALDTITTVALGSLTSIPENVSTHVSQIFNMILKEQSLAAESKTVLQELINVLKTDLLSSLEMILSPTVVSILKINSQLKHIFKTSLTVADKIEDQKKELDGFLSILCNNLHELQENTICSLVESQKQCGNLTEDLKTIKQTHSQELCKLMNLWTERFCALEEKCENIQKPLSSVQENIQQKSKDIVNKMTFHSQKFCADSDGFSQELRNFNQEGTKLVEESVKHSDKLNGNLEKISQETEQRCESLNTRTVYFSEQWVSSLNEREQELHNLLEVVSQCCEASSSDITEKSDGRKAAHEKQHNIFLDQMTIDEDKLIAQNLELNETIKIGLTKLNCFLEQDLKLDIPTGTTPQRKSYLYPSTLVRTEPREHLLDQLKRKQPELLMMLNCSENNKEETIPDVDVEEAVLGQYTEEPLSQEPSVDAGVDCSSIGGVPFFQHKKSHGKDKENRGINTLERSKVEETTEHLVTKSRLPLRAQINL
UniProt P24390: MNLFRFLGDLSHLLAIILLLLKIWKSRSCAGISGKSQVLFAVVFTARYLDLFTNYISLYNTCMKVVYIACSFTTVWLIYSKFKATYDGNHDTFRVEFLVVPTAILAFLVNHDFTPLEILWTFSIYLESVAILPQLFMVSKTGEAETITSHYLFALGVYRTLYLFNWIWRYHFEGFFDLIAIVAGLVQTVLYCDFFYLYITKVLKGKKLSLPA
UniProt O94854, 365-384: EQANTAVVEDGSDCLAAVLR
UniProt Q15046: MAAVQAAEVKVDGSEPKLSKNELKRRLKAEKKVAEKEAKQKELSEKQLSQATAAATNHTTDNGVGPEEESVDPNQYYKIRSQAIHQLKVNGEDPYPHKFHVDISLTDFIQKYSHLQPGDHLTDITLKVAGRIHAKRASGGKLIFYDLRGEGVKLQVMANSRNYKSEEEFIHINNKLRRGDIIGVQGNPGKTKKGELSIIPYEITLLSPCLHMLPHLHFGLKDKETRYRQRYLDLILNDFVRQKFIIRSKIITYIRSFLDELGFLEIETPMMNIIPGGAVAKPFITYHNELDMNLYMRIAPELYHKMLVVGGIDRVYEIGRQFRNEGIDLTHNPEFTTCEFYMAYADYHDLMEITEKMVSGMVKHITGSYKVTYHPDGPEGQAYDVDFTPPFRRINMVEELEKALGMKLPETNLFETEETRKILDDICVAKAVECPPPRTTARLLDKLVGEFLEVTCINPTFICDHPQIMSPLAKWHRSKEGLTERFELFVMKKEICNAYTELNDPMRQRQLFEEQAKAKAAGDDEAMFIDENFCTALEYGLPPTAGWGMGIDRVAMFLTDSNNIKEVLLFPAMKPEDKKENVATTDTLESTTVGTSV
UniProt Q9Y4C1, 233-256: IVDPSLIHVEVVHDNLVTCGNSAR
UniProt Q14571: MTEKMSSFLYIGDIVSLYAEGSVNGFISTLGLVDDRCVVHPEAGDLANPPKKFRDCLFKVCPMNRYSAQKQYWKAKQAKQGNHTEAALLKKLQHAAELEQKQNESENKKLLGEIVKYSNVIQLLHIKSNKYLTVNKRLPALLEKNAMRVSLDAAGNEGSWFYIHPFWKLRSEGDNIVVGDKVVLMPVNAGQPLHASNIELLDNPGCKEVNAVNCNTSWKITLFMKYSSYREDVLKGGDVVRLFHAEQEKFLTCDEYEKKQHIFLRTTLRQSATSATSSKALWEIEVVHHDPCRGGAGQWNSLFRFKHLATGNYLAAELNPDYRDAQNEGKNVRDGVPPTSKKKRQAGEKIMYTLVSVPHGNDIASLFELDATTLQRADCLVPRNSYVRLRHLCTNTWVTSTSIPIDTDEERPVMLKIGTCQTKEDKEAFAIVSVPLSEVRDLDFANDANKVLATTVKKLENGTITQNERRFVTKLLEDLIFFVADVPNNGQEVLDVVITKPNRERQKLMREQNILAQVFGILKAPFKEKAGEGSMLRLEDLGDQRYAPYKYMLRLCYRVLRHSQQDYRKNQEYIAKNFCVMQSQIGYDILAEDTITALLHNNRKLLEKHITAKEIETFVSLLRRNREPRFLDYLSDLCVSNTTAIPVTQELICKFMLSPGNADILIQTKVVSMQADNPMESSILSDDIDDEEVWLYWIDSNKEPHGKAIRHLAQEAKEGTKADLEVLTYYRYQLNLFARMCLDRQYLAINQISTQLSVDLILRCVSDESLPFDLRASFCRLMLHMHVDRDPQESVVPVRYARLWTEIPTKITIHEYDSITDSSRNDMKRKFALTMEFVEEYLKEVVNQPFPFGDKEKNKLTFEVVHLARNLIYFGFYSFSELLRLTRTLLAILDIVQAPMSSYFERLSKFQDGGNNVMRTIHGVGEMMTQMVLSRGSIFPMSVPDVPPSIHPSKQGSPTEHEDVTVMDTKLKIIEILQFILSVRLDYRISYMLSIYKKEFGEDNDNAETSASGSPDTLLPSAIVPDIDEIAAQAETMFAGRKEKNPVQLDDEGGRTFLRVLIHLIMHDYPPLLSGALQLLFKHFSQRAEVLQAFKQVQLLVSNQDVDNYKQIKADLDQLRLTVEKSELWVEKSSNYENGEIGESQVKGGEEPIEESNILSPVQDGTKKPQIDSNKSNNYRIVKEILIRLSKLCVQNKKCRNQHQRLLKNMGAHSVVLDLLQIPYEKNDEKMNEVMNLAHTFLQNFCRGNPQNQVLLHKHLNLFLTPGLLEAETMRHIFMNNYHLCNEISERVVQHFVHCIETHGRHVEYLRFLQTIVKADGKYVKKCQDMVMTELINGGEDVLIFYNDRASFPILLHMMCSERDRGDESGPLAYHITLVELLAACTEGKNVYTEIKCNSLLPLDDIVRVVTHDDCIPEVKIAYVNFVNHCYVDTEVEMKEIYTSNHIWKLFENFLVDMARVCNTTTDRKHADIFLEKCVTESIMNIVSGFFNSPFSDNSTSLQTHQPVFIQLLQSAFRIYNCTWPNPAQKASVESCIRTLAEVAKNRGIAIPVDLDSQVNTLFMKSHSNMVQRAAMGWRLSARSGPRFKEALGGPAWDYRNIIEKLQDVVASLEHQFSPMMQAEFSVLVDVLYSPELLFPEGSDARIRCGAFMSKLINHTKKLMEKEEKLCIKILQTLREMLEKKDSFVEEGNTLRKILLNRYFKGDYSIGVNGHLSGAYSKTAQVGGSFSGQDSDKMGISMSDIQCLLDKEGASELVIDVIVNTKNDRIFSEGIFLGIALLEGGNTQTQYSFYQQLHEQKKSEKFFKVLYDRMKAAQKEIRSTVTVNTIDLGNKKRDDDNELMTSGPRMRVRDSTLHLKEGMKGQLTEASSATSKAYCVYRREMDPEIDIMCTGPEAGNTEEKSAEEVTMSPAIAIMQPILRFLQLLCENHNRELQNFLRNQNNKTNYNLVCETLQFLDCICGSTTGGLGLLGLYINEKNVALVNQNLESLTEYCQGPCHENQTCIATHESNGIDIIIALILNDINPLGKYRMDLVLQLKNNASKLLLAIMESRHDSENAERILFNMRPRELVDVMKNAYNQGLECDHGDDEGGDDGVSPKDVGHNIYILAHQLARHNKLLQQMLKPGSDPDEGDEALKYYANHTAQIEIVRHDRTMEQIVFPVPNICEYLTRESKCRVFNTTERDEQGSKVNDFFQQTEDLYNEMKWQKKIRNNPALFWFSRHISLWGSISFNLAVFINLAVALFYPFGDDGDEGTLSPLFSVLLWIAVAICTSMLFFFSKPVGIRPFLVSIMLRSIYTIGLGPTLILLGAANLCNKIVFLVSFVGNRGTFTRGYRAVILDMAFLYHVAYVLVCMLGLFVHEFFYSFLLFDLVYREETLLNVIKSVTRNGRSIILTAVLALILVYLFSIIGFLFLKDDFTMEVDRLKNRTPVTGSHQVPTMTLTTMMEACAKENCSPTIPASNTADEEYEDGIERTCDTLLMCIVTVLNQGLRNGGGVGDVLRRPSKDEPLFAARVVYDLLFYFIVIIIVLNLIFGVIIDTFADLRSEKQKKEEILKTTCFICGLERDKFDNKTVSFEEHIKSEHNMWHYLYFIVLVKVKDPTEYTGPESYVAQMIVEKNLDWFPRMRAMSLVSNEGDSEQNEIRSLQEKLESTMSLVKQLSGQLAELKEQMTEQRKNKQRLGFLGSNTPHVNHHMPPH
UniProt Q9BVA0: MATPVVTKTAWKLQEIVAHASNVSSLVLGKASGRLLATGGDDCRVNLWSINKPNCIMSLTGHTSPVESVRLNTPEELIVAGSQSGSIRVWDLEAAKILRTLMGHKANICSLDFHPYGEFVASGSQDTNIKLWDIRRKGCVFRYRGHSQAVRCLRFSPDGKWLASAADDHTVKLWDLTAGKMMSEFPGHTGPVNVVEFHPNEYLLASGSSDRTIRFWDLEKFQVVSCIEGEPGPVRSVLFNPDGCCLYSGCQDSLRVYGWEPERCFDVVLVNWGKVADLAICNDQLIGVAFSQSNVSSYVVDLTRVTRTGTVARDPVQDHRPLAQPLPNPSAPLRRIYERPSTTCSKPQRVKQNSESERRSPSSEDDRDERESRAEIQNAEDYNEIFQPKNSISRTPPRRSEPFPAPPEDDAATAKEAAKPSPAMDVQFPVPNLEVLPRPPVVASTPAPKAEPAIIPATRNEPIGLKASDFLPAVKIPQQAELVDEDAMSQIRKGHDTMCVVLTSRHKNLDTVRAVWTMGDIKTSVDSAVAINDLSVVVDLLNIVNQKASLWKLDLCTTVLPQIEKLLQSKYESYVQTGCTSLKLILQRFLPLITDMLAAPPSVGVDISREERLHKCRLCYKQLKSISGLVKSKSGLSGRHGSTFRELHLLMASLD

Legend:
[1] = compound: ClCC(=O)N[C@@H]1CCCc2ccccc12; test: log2 mean competition ratio of IA-DTB cysteine labelling (DMSO/compound) (log2 ratio); higher = stronger cysteine engagement by compound; details: treatment time: 4 h, cell line lysate: HEK293T
Procedure: (§1)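 IA-DTB competitive cysteine chemoproteomics in HEK293T RIPA lysate. Lysates were treated with compound 29 or 30 at 50 or 200 µM for 4 h, then IA-DTB (500 µM, 1 h), trypsin-digested, NeutrAvidin-enriched and analysed by diaPASEF. Competition ratio = intensity DMSO / intensity compound (n=4 treated, n=64 DMSO); binding: mean log2 CR ≥ 1 and p ≤ 0.05 plus QC filters. Target is the cysteine site.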

[2] = compound: ClCC(=O)N[C@H]1CCCc2ccccc12; test: as above; details: treatment time: 4 h, cell line lysate: HEK293T
Procedure: as §1

Target	log2 mean competition ratio ([1]; 50 µM)	log2 mean competition ratio ([1]; 200 µM)	log2 mean competition ratio ([2]; 50 µM)	log2 mean competition ratio ([2]; 200 µM)
KDM4A C533 (UniProt O75164)	-0.136	-0.00681	0.513	-0.0543
KDM6B C1138	-0.292	0.227	-0.684	0.278
ITPR1 C653 (UniProt Q14643)	-0.0625	-0.132	-0.0739	0.0345
KIF4A C977 (UniProt O95239)	0.242	-0.222	0.333	-0.105
KCTD5 C6 (UniProt Q9NXV2)	-0.19	0.732	-0.537	0.365
KANK1 C317 (UniProt Q14678)	0.0434	0.0972	0.183	0.0698
KIF11 C43 (UniProt P52732)	-0.0392	-0.00979	0.00301	-0.066
KDELR1 C29 (UniProt P24390)	0.0502	-0.104	0.106	-0.0843
JAK1 C827 (UniProt P23458)	0.303	0.587	-0.213	0.421
IRF2BPL C63 (UniProt Q9H1B7)	-0.0505	-0.0469	0.0573	-0.00955
KCTD3 C704 (UniProt Q9Y597)	-0.129	0.033	-0.0469	-0.0169
KDM5A C794 (UniProt P29375)	-0.266	-0.401	-0.517	-0.105
KIAA0754 C80 (UniProt O94854)	0.0117	-0.0574	0.153	0.101
KARS1 C496 (UniProt Q15046)	-0.425	-0.421	0.0369	-0.326
KHSRP C176	-0.127	0.0559	0.264	0.278
KATNA1 C266 (UniProt O75449)	-0.158	0.192	-0.0917	0.158
KDM8 C99 (UniProt Q8N371)	0.426	-0.0697	0.767	0.362
KDM3A C852 (UniProt Q9Y4C1)	-0.047	-0.0852	-0.337	-0.00266
KIF4A C190 (UniProt O95239)	-0.111	0.406	-0.251	0.2
KIF20B C1158 (UniProt Q96Q89)	-0.0276	0.0594	-0.144	0.0548
KDM3A C251 (UniProt Q9Y4C1)	0.0386	0.276	-0.233	0.0465
ITPR2 C214 (UniProt Q14571)	-0.175	-0.411	0.254	0.0881
KATNB1 C579 (UniProt Q9BVA0)	0.13	-0.0849	0.0222	-0.244

Target	log2 mean competition ratio ([1]; 50 µM)	log2 mean competition ratio ([1]; 200 µM)	log2 mean competition ratio ([2]; 50 µM)	log2 mean competition ratio ([2]; 200 µM)
KIF23 C759 (UniProt Q02241)	-0.0178	0.246	0.108	0.28
IRS4 C658	0.21	0.279	0.0978	0.314
KDM3A C467 (UniProt Q9Y4C1)	-0.16	0.205	-0.0992	-0.061
ITGA4 C183 (UniProt P13612)	-0.0169	-0.158	-0.496	-0.0143
KIAA1671 C882	0.0582	0.173	-0.028	0.357
ITPR3 C1511 (UniProt Q14573)	0.0654	0.282	-0.394	0.296
JMY C498 (UniProt Q8N9B5)	-0.136	0.167	0.159	0.165
KIF1B C356 (UniProt O60333)	-0.0875	-0.0688	-0.22	-0.0391
ISCA2 C79 (UniProt Q86U28)	0.234	-0.158	0.572	-0.174
KHNYN C46 (UniProt O15037)	0.589	0.329	-0.489	0.112
KIF21A C1437	-0.339	-0.197	0.091	-0.0909
KANSL1 C208 (UniProt Q7Z3B3)	0.268	-0.277	0.145	-0.419
KIF1B C1607 (UniProt O60333)	-0.133	-0.367	-0.373	-0.633
KIF15 C576 (UniProt Q9NS87)	0.0798	0.669	0.229	0.356
JUP C49 (UniProt P14923)	-0.0286	0.393	-0.102	0.319
KIAA1586 C232 (UniProt Q9HCI6)	-0.114	0.112	0.0374	0.137
KIAA0754 C242 (UniProt O94854)	-0.204	0.434	0.104	0.00627
KDM3A C695 (UniProt Q9Y4C1)	0.118	0.0198	0.0969	0.02
KIF11 C911 (UniProt P52732)	0.114	-0.23	-0.176	-0.264
ITPR1 C37 (UniProt Q14643)	-0.182	-0.211	-0.148	-0.377
KDM2B C770 (UniProt Q8NHM5)	-0.171	0.153	0.195	0.0851
JUP C457 (UniProt P14923)	-0.311	0.274	-0.339	0.151
KIF14 C508 (UniProt Q15058)	-0.0491	-0.2	0.227	-0.22

Part of the list above, with bars between the fields:
Target | log2 mean competition ratio ([1]; 50 µM) | log2 mean competition ratio ([1]; 200 µM) | log2 mean competition ratio ([2]; 50 µM) | log2 mean competition ratio ([2]; 200 µM)
KATNB1 C579 (UniProt Q9BVA0) | 0.13 | -0.0849 | 0.0222 | -0.244
KIF23 C759 (UniProt Q02241) | -0.0178 | 0.246 | 0.108 | 0.28
